Some of the results follow.
target: OsWRKY34 (Oryza sativa, UniProt Q0JBA9 1-250); assay: protein-binding microarray (RPBM); PBS, 2% BSA, 51.3 ng/ul salmon testes DNA, 50 uM zinc acetate, 200 nM TF, 25 C, 1 h; high values mean tight binding; conditions: protein: recombinant; tags: N-terminal polyhistidine and DsRed monomer fusion (pET32a); label: CyDye5-dUTP incorporated in the synthesized complementary strand; 3' TTTTT single-stranded linker to array surface; dsDNA, one strand shown
In short: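 In PBS with 2% BSA, salmon testes DNA and 50 µM zinc acetate, 200 nM protein was incubated on a custom Agilent array at 25 °C for 1 h and then washed off. The array had been made double-stranded by primer extension with Cy5-dUTP and blocked with 2% BSA. The proteins were transcription factors fused N-terminally to polyhistidine and DsRed, expressed in E. coli BL21-CodonPlus and purified on Ni–NTA. The binding signal is per-feature fluorescence intensity (arbitrary units) from an Axon 4000B scanner.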

Amino acid sequences for entries named in this document (tags omitted).
UniProt Q0JBA9, entry or part of it: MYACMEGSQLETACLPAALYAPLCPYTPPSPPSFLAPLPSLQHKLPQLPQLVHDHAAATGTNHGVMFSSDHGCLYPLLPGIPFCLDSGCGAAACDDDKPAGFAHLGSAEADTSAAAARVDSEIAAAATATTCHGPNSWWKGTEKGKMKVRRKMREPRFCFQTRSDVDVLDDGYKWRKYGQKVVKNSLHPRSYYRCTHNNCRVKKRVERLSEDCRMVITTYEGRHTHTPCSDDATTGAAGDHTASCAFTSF

| Sequence | binding signal |
| --- | --- |
| CATTGGCAGGACATCACATGTTAATATTGTTAGCTTATTTCGGAGTCACCTAGTGCAG | 8060 fluorescence intensity (a.u.) |
| CTCCTCTTATCTTGGGCAGTAGTGGCGCTACCTCTTTCTTCGGAGTCACCTAGTGCAG | 8570 fluorescence intensity (a.u.) |
| CGACGCGCTGGCATGTATTTTCAACGTCTTCTTCTGTCGTCGGAGTCACCTAGTGCAG | 9880 fluorescence intensity (a.u.) |
| CCCTACGTTACATTTTTAAGTCACTGATGTGTAGATCCATCGGAGTCACCTAGTGCAG | 10000 fluorescence intensity (a.u.) |
| ATAGCATTGGTTTCTCGTTAGGTTCAGATATAGGAATAGACGGAGTCACCTAGTGCAG | 9440 fluorescence intensity (a.u.) |
| AGGGGAGGGGAGCACGAGCGGGGCGAGGTTCCCGATCCTGCGGAGTCACCTAGTGCAG | 8300 fluorescence intensity (a.u.) |
| CATCGTTTTCCCCTGGGCGGGGTGGCCTGTTGTTATTAGCCGGAGTCACCTAGTGCAG | 13700 fluorescence intensity (a.u.) |
| TACCTCCGTTGCCAACGCCGGAATCCATCCATCCATCCCCCGGAGTCACCTAGTGCAG | 8080 fluorescence intensity (a.u.) |
| CCCTTTTCATGGCTTTTCATGCAGCTCTTTTGAGTCGATCCGGAGTCACCTAGTGCAG | 9590 fluorescence intensity (a.u.) |
| CCCACACTACGGTCAACATTGTACAATAATAGACGCCCAGCGGAGTCACCTAGTGCAG | 8110 fluorescence intensity (a.u.) |
| GACCTTTGGAACTTTGACTGTAACCCCAACATAGCTTATTCGGAGTCACCTAGTGCAG | 8390 fluorescence intensity (a.u.) |
| ACCCTAGCTCTAGCCCAATATATACGTGGTATACGTGCAGCGGAGTCACCTAGTGCAG | 8210 fluorescence intensity (a.u.) |
| ATTAACTGCATTTTCGTCGCATCCGGATTATGGAGCTCCACGGAGTCACCTAGTGCAG | 8840 fluorescence intensity (a.u.) |
| GTACATACCCGTATTATTTATCTGTCGCTATGTAGGATTTCGGAGTCACCTAGTGCAG | 10500 fluorescence intensity (a.u.) |
| TTTGCATAGTCTTATATTTTCCATTATGCTATCTTTCAGTCGGAGTCACCTAGTGCAG | 9530 fluorescence intensity (a.u.) |
| CAACTATTGTACTGACCCAATTTCTTGCGTACCACCATGACGGAGTCACCTAGTGCAG | 8190 fluorescence intensity (a.u.) |
| CCGCCCTTTTGACATAGGTGCACATGAAATTTCCTTGTTCCGGAGTCACCTAGTGCAG | 8820 fluorescence intensity (a.u.) |
| GTGGTGGTGGTGATCTTTGGAGGGAGGAGCACAAGAAGCACGGAGTCACCTAGTGCAG | 8670 fluorescence intensity (a.u.) |
| CCTCTCGCTGTCTCGCACTCTCGCATCGACTTCTCCGTCACGGAGTCACCTAGTGCAG | 11500 fluorescence intensity (a.u.) |
| AATTTTTTCCAGACGGGTCAGTTATGGACCGTCTGAAATTCGGAGTCACCTAGTGCAG | 8540 fluorescence intensity (a.u.) |
| GGATTTCCTGGGCGGGCGGGGCGCGGATAAGGGGTGTGTGCGGAGTCACCTAGTGCAG | 17000 fluorescence intensity (a.u.) |

| Sequence | binding signal |
| --- | --- |
| GACGAACAAGCATAATCCGTATCTGTATCTTTGTTTATTTCGGAGTCACCTAGTGCAG | 8980 fluorescence intensity (a.u.) |
| CTTGTGGGTCCCCAATTCACGAGTCATTGCTGTCACGCTCCGGAGTCACCTAGTGCAG | 8070 fluorescence intensity (a.u.) |
| TCTACATTTTGACTTAGCTTTCACCTTTGCATATGTTGCTCGGAGTCACCTAGTGCAG | 8260 fluorescence intensity (a.u.) |
| GAAGTGAAGGTGGCATTGATGCATGCACAGTTGATTTTCTCGGAGTCACCTAGTGCAG | 8110 fluorescence intensity (a.u.) |
| TGATTGCCTTGCCTTGCCTGCCTGCGTGTCATCAGTCGTCCGGAGTCACCTAGTGCAG | 12400 fluorescence intensity (a.u.) |
| CGCCGCGCCCCGCCACGCTCCTCTCGCCTCGCCTCGGCGTCGGAGTCACCTAGTGCAG | 9410 fluorescence intensity (a.u.) |
| CCCCAACGATGTTATCCCCTCACTATACTAATGTTATTCTCGGAGTCACCTAGTGCAG | 8150 fluorescence intensity (a.u.) |
| CGATTTTCAATTGGAACTTAACGCTGCCAATGCATATACTCGGAGTCACCTAGTGCAG | 8250 fluorescence intensity (a.u.) |
| GTCATTCATGTGTTTTTCCTGTGTTTTGCAATCCTCTGTTCGGAGTCACCTAGTGCAG | 13800 fluorescence intensity (a.u.) |
| ACTCCTCGTTTTACTACTCCATCCCTTTCGCCTTCGACTTCGGAGTCACCTAGTGCAG | 10400 fluorescence intensity (a.u.) |
| ACGGCGTCTATCCACTCACCCGACCGTTGCCTGTATGCGTCGGAGTCACCTAGTGCAG | 8690 fluorescence intensity (a.u.) |
| CTTCGGTGTACTTTTTTCTTTTCTAGTTCCTGGTTCTAATCGGAGTCACCTAGTGCAG | 18000 fluorescence intensity (a.u.) |
| ACTGCAAACACGGCTCTTCACCTGCGTTTACTCATCCAAGCGGAGTCACCTAGTGCAG | 8400 fluorescence intensity (a.u.) |
| TTAGGTTTTTTTTTGGTGGTTTTGACCCCGGTATTATCCGCGGAGTCACCTAGTGCAG | 10900 fluorescence intensity (a.u.) |
| ACTAGAGTGACTCTACTCTACTCTCACAGGCTCTTCACCACGGAGTCACCTAGTGCAG | 10500 fluorescence intensity (a.u.) |
| TTTAAGCATTGATAGTTTTTTTTTCCTTTCACTTTTGTTTCGGAGTCACCTAGTGCAG | 9990 fluorescence intensity (a.u.) |
| GGAGCTCATCTGTAGGGGAGGGAGGGCGTCGACGAGGGAGCGGAGTCACCTAGTGCAG | 8840 fluorescence intensity (a.u.) |
| TCCAGCCGCCCCACCCACCGTTCCAGCCGCTCGTGCCACTCGGAGTCACCTAGTGCAG | 8740 fluorescence intensity (a.u.) |
| CAATTTGTTGGTTGGTGGTGTTGTGGTGATGTGATTGTTGCGGAGTCACCTAGTGCAG | 9750 fluorescence intensity (a.u.) |
| GATATAGGACATCTCTCAATTTACAAAACCGTTCGCTTTACGGAGTCACCTAGTGCAG | 9210 fluorescence intensity (a.u.) |
| CATGTGAGTGTTTATAGAGGTGAGTGTGCGTGTGTGCATACGGAGTCACCTAGTGCAG | 8850 fluorescence intensity (a.u.) |

Rewritten field by field: part of the list above
GACGAACAAGCATAATCCGTATCTGTATCTTTGTTTATTTCGGAGTCACCTAGTGCAG
  binding signal: 8980 fluorescence intensity (a.u.)
GTCATTCATGTGTTTTTCCTGTGTTTTGCAATCCTCTGTTCGGAGTCACCTAGTGCAG
  binding signal: 13800 fluorescence intensity (a.u.)

Source: article PMC7819943, “Rice protein-binding microarrays: a tool to detect cis-acting elements near promoter regions in rice”
